# Assay results reported in PubChem BioAssay AID2685 (National Center for Advancing Translational Sciences (NCATS), 2010).
# The other results are listed elsewhere or left out. These are further read-outs of the screen, such as a control signal, another cell line or another target. No call is given for them. Compounds called inactive in the main read-out are mostly missing here. Potencies come from curve fits of mixed quality, noted in brackets.
# Assay: qHTS Assay for Lipid Storage Modulators in Drosophila S3 Cells;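 on cell number change: cells counted by Cell Tracker Red CMTPX staining in the red channel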
# Settings: BODIPY lipid droplet fluorescence, 18-24 h; for cell number change: measured here: cell count max response, cells fed with added oleic acid
# How it was run: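 Laser-scanning cytometry quantifies lipid droplet accumulation (500–530 nm total intensity; droplet/cell object ratio) in oleic acid-fed (400 uM added) Drosophila S3 cells treated with a concentration series. 20 uM Triacsin C defined 100% inhibition.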
# [1] = measured here: cell number channel AC50, cells fed with added oleic acid
# [2] = measured here: lipid fluorescence (Fed channel) AC50, cells fed with added oleic acid
SMILES,cell number change [%],AC50 [1],AC50 [2]
Cc1c([N+](=O)[O-])cc(C(=O)Nc2ccc(Cc3ccncc3)cc2)cc1[N+](=O)[O-],50.2,"18.4 µM [rising, partial curve]","29.1 µM [rising, single point]"
COc1ccc(NC(=O)c2cc(S(=O)(=O)N(Cc3ccccc3)c3ccccc3)ccc2Cl)cn1,1.3,–,"0.731 µM [rising, single point]"
CCOC(=O)c1cnc(-n2[nH]c(C)c(Cc3ccccc3)c2=O)[nH]c1=O,-65.5,"1.46 µM [falling, partial curve]","0.461 µM [falling, partial curve]"
CCOC(=O)c1ccc(NC(=O)CCNc2c(N3CCCC3)c(=O)c2=O)cc1,11.4,–,–
Cn1c(=O)[nH]c(=O)c2c1nc(CN1CCN(Cc3ccccc3)CC1)n2CC(N)=O,-128,"32.6 µM [falling, partial curve]","7.31 µM [falling, partial curve]"
O=C(Cn1[nH]c(=O)c2ccccc2c1=O)OCC(=O)c1ccc(F)cc1,-8.04,–,"2.06 µM [rising, full curve]"
Cc1c(C(=O)c2ccc(F)cc2F)c2ccccn2c1CCC#N,-18.1,–,"6.51 µM [rising, single point]"
O=c1ccsn1Cc1ccccc1,-78.4,"32.6 µM [falling, partial curve]","29.1 µM [falling, partial curve, poor fit]"
CC(C)(C)n1nc2c(c1NC(=O)c1ccccc1F)CS(=O)C2 (stereo not given),42.2,"29.1 µM [rising, single point]",–
Cc1csc2ncnc(NC3CCN(Cc4ccccc4)CC3)c12,-34.2,"14.6 µM [falling, single point]","0.146 µM [falling, full curve, poor fit]"
O=C(COC(=O)C(Cc1ccccc1)NC(=O)c1ccc(Cl)cc1)c1ccc(Cl)cc1 (stereo not given),0.114,–,"0.651 µM [falling, single point]"
CC(=O)c1ccc(NC(=O)C2CC(=O)N(Cc3ccccc3)C2)cc1 (stereo not given),47.3,"16.4 µM [rising, single point]","3.26 µM [falling, partial curve]"
CCOC(=O)Nc1ccc(S(=O)(=O)Nc2cc(C)nc(C)n2)cc1,-33.8,"0.103 µM [falling, full curve]","9.2 µM [falling, partial curve]"
O=C1CCc2cc(S(=O)(=O)N3CCC(C(=O)NCCC4=CCCCC4)CC3)ccc2N1,18.4,–,"2.91 µM [rising, partial curve]"
Cn1nc(C(=O)NCc2ccc(F)cc2)cc1C(=O)NCc1ccc(F)cc1,–,"6.51 µM [rising, single point]",–
COC(=O)c1cccc(NC(=S)NCc2ccco2)c1,16.6,"0.082 µM [rising, full curve, poor fit]","0.58 µM [falling, single point]"
O=C(c1ccco1)N1CCN(S(=O)(=O)c2ccc3c(c2)CCN3C(=O)C2CCC2)CC1,-26.4,–,"14.6 µM [falling, single point]"
Cc1ccc(-c2c(C(=O)N/N=C/c3ccc4c(c3)OCO4)nnn2-c2nonc2N)cc1,6.42,–,"29.1 µM [rising, single point]"
S=c1[nH]nc(-c2cc(-c3ccco3)[nH]n2)n1-c1ccccc1Cl,11.9,–,"25.9 µM [rising, partial curve, poor fit]"

# 16 structures already listed, arranged by SMILES length, falling:
SMILES,cell number change [%],AC50 [1],AC50 [2]
Cc1c([N+](=O)[O-])cc(C(=O)Nc2ccc(Cc3ccncc3)cc2)cc1[N+](=O)[O-],50.2,"18.4 µM [rising, partial curve]","29.1 µM [rising, single point]"
COc1ccc(NC(=O)c2cc(S(=O)(=O)N(Cc3ccccc3)c3ccccc3)ccc2Cl)cn1,1.3,–,"0.731 µM [rising, single point]"
O=C(c1ccco1)N1CCN(S(=O)(=O)c2ccc3c(c2)CCN3C(=O)C2CCC2)CC1,-26.4,–,"14.6 µM [falling, single point]"
Cc1ccc(-c2c(C(=O)N/N=C/c3ccc4c(c3)OCO4)nnn2-c2nonc2N)cc1,6.42,–,"29.1 µM [rising, single point]"
O=C(COC(=O)C(Cc1ccccc1)NC(=O)c1ccc(Cl)cc1)c1ccc(Cl)cc1 (stereo not given),0.114,–,"0.651 µM [falling, single point]"
CCOC(=O)c1cnc(-n2[nH]c(C)c(Cc3ccccc3)c2=O)[nH]c1=O,-65.5,"1.46 µM [falling, partial curve]","0.461 µM [falling, partial curve]"
CCOC(=O)c1ccc(NC(=O)CCNc2c(N3CCCC3)c(=O)c2=O)cc1,11.4,–,–
O=C(Cn1[nH]c(=O)c2ccccc2c1=O)OCC(=O)c1ccc(F)cc1,-8.04,–,"2.06 µM [rising, full curve]"
Cn1nc(C(=O)NCc2ccc(F)cc2)cc1C(=O)NCc1ccc(F)cc1,–,"6.51 µM [rising, single point]",–
CC(=O)c1ccc(NC(=O)C2CC(=O)N(Cc3ccccc3)C2)cc1 (stereo not given),47.3,"16.4 µM [rising, single point]","3.26 µM [falling, partial curve]"
CCOC(=O)Nc1ccc(S(=O)(=O)Nc2cc(C)nc(C)n2)cc1,-33.8,"0.103 µM [falling, full curve]","9.2 µM [falling, partial curve]"
CC(C)(C)n1nc2c(c1NC(=O)c1ccccc1F)CS(=O)C2 (stereo not given),42.2,"29.1 µM [rising, single point]",–
Cc1c(C(=O)c2ccc(F)cc2F)c2ccccn2c1CCC#N,-18.1,–,"6.51 µM [rising, single point]"
Cc1csc2ncnc(NC3CCN(Cc4ccccc4)CC3)c12,-34.2,"14.6 µM [falling, single point]","0.146 µM [falling, full curve, poor fit]"
COC(=O)c1cccc(NC(=S)NCc2ccco2)c1,16.6,"0.082 µM [rising, full curve, poor fit]","0.58 µM [falling, single point]"
O=c1ccsn1Cc1ccccc1,-78.4,"32.6 µM [falling, partial curve]","29.1 µM [falling, partial curve, poor fit]"

# (cont.)

SMILES,cell number change [%],AC50 [1],AC50 [2]
CC(=O)Nc1nc(C)c(-c2csc(Nc3ccc(O)cc3)n2)s1,-64.9,"29.1 µM [falling, single point]","29.1 µM [falling, single point]"
COc1cc(N)c(Cl)cc1C(=O)OC(C)C(=O)Nc1cccc(S(=O)(=O)N2CCOCC2)c1 (stereo not given),-10.7,–,–
CCCCn1cnc2sc3c(c2c1=N)CCCC3,-13.2,"0.0058 µM [falling, full curve, poor fit]",–
COC(C[C@H](O)C[C@@H](O)COCc1ccccc1)OC,2.46,–,"0.259 µM [falling, full curve, poor fit]"
Cc1ccc(C)c(NC2=C(Cl)C(=O)OC2OC(=O)c2ccco2)c1 (stereo not given),-20,"0.82 µM [falling, full curve, poor fit]","29.1 µM [rising, partial curve, poor fit]"
COc1cc(C(=O)Nc2cccc(C)c2C)c(Br)c(OC)c1OC,31.6,"18.4 µM [rising, single point]",–
Cc1occc1-c1nnc(SCC(=O)N2CCCC(C)C2)o1 (stereo not given),-2.8,"2.91 µM [rising, partial curve, poor fit]",–
CCOC(=O)c1ccccc1NC(=O)c1ccc(F)cc1,-1.21,–,"7.31 µM [rising, partial curve]"
COc1ccccc1/C=N/N(C(C)=O)c1nc(-c2ccc(F)cc2)cs1,-22.6,–,–
NS(=O)(=O)c1ccc(CNC(=O)CCCSc2ccccc2)cc1,10.3,–,–
COC(=O)C1=C(C)N(Cc2ccccc2)C(=NCCc2c[nH]c3ccccc23)N[C@H]1c1cccc(C(F)(F)F)c1,-0.291,–,"29.1 µM [falling, single point]"
C=CCn1c(-c2csc3ccccc23)n[nH]c1=S,–,–,"1.64 µM [rising, partial curve]"
O=C(COC(=O)c1cc(=O)c2ccccc2o1)Nc1c(F)c(F)c(F)c(F)c1F,–,"0.146 µM [rising, full curve, poor fit]","6.51 µM [rising, single point]"
Cc1ccc(C)c(NC(=O)c2ccccc2Sc2ccc([N+](=O)[O-])cc2Cl)c1,9.05,–,"23.1 µM [rising, single point]"
Cc1ccc(/C=N/Nc2nnc(Cl)c3ccccc23)cc1,27,–,"1.84 µM [rising, partial curve]"
Cc1ccc(Cn2nnc(C(=O)Nc3cccc(C)c3C)c2N)cc1,22.6,–,–
COC(=O)c1c(C)[nH]c(C(=O)OCC(=O)NC(C)(C)C)c1C,21.8,–,–
O=c1[nH][nH]c(-c2ccccc2)c1C=Nc1ccccc1Cl,-14.2,–,–
O=S(=O)(c1ccccc1)c1nc(-c2ccc(Cl)cc2)oc1NCCCN1CCOCC1,-98.8,"14.6 µM [falling, partial curve, poor fit]","5.17 µM [falling, full curve]"

SMILES,cell number change [%],AC50 [1],AC50 [2]
Nc1ccc(C23CC4CC(CC(C4)C2)C3)cc1,-28,–,"29.1 µM [falling, single point]"
COC(=O)CSc1nc2ncc(Cl)cc2[nH]1,-18,"3.26 µM [falling, single point]","16.4 µM [falling, partial curve]"
Cc1ccccc1NC(=S)NCCc1c[nH]c2ccccc12,–,"2.91 µM [falling, partial curve, poor fit]",–
COc1ccc(-c2noc(N3CCC(C(=O)Nc4ccc(OC)c(OC)c4)CC3)n2)cc1,21.3,–,"29.1 µM [rising, single point]"
CCn1cc(C(=O)O)c(=O)c2cc(F)c(N3CCN(S(=O)(=O)c4ccc5c(c4)OCCO5)CC3)cc21,-5.19,"0.00651 µM [rising, full curve, poor fit]",–
Cc1cc(C)nc(SCC(=O)c2cc3ccccc3oc2=O)n1,2.7,–,–
O=C(CCN1C(=O)c2ccccc2C1=O)Nc1cc(F)ccc1F,12.5,–,"25.9 µM [falling, partial curve, poor fit]"
Cc1cc(S(=O)(=O)N2CCN(c3ccc(F)cc3)CC2)ccc1-n1cnnn1,–,"0.164 µM [rising, partial curve, poor fit]","6.51 µM [falling, single point]"
Cn1nnnc1SCC(=O)N1c2ccccc2Sc2ccc(Cl)cc21,55.4,"13 µM [rising, partial curve]",–
Cc1ccc(NC(=O)N2CCCC2C(=O)NCc2ccc3c(c2)OCO3)cc1 (stereo not given),-9.24,–,"3.26 µM [falling, full curve]"
COc1ccccc1CN1CC(C(=O)N2CCC(C(=O)c3ccccc3)CC2)CCC1=O (stereo not given),-20,–,–
CCC1CN(C(=O)NCc2ccccc2)c2cc(C)ccc2O1 (stereo not given),-4.23,–,–
N#Cc1nc(COc2ccc(F)cc2)oc1N1CCN(Cc2ccccc2)CC1,73.8,"13 µM [rising, partial curve]","14.6 µM [rising, partial curve]"
COc1ccc(C(C(=O)NC2CCCCC2)N(Cc2cccs2)C(=O)Cc2c[nH]c3ccccc23)cc1OC (stereo not given),–,–,"1.3 µM [rising, full curve]"
O=C(Nc1ccc(F)cc1F)c1cc(-c2ccco2)nc2ccccc12,–,–,"29.1 µM [rising, single point]"
CCOc1ccc(NC(=O)CN(C)C(=O)c2ccc3[nH]c4c(c3c2)CC(C)CC4)cc1OCC (stereo not given),14.3,"2.31 µM [rising, partial curve]","1.84 µM [rising, partial curve]"
CC(C)C(=O)NC(Nc1cc(C(F)(F)F)ccc1Cl)C(Cl)(Cl)Cl (stereo not given),-18.6,–,"0.146 µM [falling, single point]"
COc1cc(SC)ccc1C(=O)NCCOc1ccc(F)cc1,48.2,"20.6 µM [rising, single point]","20.6 µM [rising, partial curve]"
Cc1c(Cl)cccc1-n1ccnc1SCC(=O)O,-19.3,"2.06 µM [falling, partial curve]","0.146 µM [falling, full curve, poor fit]"
